In paper PMC9792849:
Results are given in words; binding and its absence hold for the method and conditions named. In cells and extracts the contact can be indirect. Some results given as binding are weak or reduced against the parent protein; the word gives no strength. Tags and fused reporters may be left off the sequences shown.

T1: DNAAF2 protein with the Flag tag fused to the C-terminus (UniProt Q9NVR5)
T1 sequence: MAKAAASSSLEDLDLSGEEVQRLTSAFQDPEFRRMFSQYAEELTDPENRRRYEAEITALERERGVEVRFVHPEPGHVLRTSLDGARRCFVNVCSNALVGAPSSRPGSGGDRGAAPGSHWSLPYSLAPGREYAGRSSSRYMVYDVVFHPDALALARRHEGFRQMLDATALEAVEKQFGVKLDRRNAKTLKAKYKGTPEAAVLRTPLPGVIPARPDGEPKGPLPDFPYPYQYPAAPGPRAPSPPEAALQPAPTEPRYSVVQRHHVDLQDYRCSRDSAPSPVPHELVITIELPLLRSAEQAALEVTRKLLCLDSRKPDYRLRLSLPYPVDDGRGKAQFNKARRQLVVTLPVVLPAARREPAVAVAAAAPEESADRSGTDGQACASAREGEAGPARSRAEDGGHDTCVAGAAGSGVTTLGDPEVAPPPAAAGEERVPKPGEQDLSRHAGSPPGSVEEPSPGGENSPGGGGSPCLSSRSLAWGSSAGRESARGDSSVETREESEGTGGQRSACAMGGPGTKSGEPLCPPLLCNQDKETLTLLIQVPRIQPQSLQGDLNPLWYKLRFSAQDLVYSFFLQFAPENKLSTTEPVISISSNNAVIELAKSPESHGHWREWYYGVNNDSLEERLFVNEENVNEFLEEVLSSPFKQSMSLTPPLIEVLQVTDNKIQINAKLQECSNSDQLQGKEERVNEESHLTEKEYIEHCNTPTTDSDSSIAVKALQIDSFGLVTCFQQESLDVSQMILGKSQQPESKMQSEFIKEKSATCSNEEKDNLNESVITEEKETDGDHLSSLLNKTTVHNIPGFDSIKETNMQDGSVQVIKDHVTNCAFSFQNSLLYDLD


Target: T1, DNAAF2 protein with the Flag tag fused to the C-terminus
Assay: co-IP; HA-tagged DNAAF4 co-expressed with Flag-tagged DNAAF2 in HEK293T cells for 48 h; extracts immunoprecipitated with Flag antibody on Protein G magnetic beads overnight at 4°C, washed 5 times with CoIP buffer; western blot with Flag and HA antibodies

Binder	binding
normal DNAAF4 protein with the HA tag fused to the C-terminus (protein, UniProt Q8WXU2-1 1-420) MPLQVSDYSWQQTKTAVFLSLPLKGVCVRDTDVFCTENYLKVNFPPFLFEAFLYAPIDDESSKAKIGNDTIVFTLYKKEAAMWETLSVTGVDKEMMQRIREKSILQAQERAKEATEAKAAAKREDQKYALSVMMKIEEEERKKIEDMKENERIKATKALEAWKEYQRKAEEQKKIQREEKLCQKEKQIKEERKKIKYKSLTRNLASRNLAPKGRNSENIFTEKLKEDSIPAPRSVGSIKINFTPRVFPTALRESQVAEEEEWLHKQAEARRAMNTDIAELCDLKEEEKNPEWLKDKGNKLFATENYLAAINAYNLAIRLNNKMPLLYLNRAACHLKLKNLHKAIEDSSKALELLMPPVTDNANARMKAHVRRGTAFCQLELYVEGLQDYEAALKIDPSNKIVQIDAEKIRNVIQGTELKS	binds
mutant DNAAF4 protein (p. G373E) with the HA tag fused to the C-terminus (protein, UniProt Q8WXU2-1 1-420) MPLQVSDYSWQQTKTAVFLSLPLKGVCVRDTDVFCTENYLKVNFPPFLFEAFLYAPIDDESSKAKIGNDTIVFTLYKKEAAMWETLSVTGVDKEMMQRIREKSILQAQERAKEATEAKAAAKREDQKYALSVMMKIEEEERKKIEDMKENERIKATKALEAWKEYQRKAEEQKKIQREEKLCQKEKQIKEERKKIKYKSLTRNLASRNLAPKGRNSENIFTEKLKEDSIPAPRSVGSIKINFTPRVFPTALRESQVAEEEEWLHKQAEARRAMNTDIAELCDLKEEEKNPEWLKDKGNKLFATENYLAAINAYNLAIRLNNKMPLLYLNRAACHLKLKNLHKAIEDSSKALELLMPPVTDNANARMKAHVRRETAFCQLELYVEGLQDYEAALKIDPSNKIVQIDAEKIRNVIQGTELKS	binds
